The values below are quoted from earlier work in article PMC3561686 (Basic & Clinical Pharmacology & Toxicology, 2012).

This data set has as its system CYP3A. As to conditions: cited from earlier work.

Consider `CC(C)c1c(C(=O)Nc2ccccc2)c(-c2ccccc2)c(-c2ccc(F)cc2)n1CC[C@@H](O)C[C@@H](O)CC(=O)O` [atorvastatin], for which the “Change in prasugrel AM formation or the inhibition of platelet aggregation when prasugrel was administered with the drug” value is listed as “no change”.
